According to article PMC7504119:
These are yes or no findings as the source states them, for the method shown. In cells and extracts the contact can be indirect. Some binding calls cover weakened binding; strength is not graded here. Sequences can lack the tags named with a protein.

Sequences of proteins named here, by UniProt entry; tags and fusion partners are left off. Residues count along the entry.
UniProt O60260: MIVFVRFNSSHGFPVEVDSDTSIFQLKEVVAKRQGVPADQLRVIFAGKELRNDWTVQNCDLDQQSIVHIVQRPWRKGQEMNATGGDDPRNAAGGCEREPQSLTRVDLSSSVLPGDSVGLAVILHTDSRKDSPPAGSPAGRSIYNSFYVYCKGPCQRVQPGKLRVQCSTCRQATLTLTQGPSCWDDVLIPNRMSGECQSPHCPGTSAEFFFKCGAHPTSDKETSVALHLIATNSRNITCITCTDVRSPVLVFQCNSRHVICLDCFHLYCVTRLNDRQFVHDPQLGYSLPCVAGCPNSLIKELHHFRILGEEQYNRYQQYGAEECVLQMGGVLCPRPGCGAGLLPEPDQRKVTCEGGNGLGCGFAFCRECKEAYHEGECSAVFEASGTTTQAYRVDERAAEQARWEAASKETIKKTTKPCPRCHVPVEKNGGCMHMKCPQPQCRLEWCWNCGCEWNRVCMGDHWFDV
UniProt P25705, residues 44-553: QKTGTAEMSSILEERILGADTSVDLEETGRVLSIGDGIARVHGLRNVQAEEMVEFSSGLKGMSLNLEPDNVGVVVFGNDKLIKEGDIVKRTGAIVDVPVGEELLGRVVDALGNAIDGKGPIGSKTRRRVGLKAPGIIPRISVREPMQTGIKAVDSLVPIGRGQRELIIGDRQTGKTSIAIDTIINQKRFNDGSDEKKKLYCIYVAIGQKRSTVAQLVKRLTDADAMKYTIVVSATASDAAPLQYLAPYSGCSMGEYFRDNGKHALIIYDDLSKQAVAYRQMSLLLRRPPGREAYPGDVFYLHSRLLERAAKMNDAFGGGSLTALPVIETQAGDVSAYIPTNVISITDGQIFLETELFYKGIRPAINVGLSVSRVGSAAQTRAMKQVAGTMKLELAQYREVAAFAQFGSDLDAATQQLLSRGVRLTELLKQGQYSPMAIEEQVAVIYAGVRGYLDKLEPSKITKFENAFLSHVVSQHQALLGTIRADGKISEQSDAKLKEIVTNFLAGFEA

What was measured:
[1] = molecular target: T1, FLAG-tagged wild-type human Sestrin2 (SESN2^ABC) (human) (UniProt P58004); test: co-IP; HEK293 co-transfected with FLAG-tagged Sestrin2 (WT or truncated) and HA-tagged ATP5A or HA-Parkin; IP with FLAG-conjugated beads, lysis buffer with 0.3% CHAPS, immunoblot with HA antibody
T1 sequence: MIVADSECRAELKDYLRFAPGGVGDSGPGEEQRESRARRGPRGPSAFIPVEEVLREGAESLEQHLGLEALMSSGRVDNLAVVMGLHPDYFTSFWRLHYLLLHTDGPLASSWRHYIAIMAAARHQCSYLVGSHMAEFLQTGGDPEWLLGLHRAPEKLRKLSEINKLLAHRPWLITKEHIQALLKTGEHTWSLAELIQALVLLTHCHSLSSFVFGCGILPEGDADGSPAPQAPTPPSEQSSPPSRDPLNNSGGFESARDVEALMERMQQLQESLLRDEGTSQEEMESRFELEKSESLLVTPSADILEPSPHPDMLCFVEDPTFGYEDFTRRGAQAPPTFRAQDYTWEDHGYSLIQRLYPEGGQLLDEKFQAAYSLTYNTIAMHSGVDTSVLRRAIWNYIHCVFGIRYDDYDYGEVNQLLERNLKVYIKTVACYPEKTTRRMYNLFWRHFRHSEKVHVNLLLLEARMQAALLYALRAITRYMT

[2] = molecular target: T2, FLAG-tagged C-terminal domain (CTD) of Sestrin2 (SESN-C, AA 339-480) (human) (UniProt P58004); test: as above
T2 sequence: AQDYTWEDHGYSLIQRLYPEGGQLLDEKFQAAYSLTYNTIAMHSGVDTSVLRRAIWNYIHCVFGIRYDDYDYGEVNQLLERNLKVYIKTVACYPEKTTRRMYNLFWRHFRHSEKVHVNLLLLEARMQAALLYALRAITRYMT

| binding [1] | binding [2] | Substance |
| --- | --- | --- |
| no binding |  | HA-Parkin (from UniProt O60260 1-465) |
| binds | binds | HA-tagged human ATP5A (from UniProt P25705 44-553) |
